Experimental data taken from PubChem BioAssay AID328 (DTP/NCI, 2004).
The list is a part of this screen's results and no random one: it is rich in T/C values a quarter to a half above the control, in often repeated tests (any T/C) and in doses without a T/C. Other doses and runs of a compound stand elsewhere. T/C: endpoint of the treated group in % of that of the vehicle group. Some doses have a count of surviving animals in place of a T/C: the source files T/C as zero there, which appears to mark a toxic dose or a test without result, not a measured value. Some doses without a T/C left all or most animals alive at the check, yet need not have been tolerated: survival well below the control is almost never listed, so the zero probably covers shortened survival too. Survivors were counted at the toxicity check, usually on the fifth day, unless a day is given; later deaths do not show. Schedules are NCI's codes, read here as Q, the interval in days (D) or hours (H), X, the number of doses. Some schedules carry Z or #; the key to these is not given. Where survival is the endpoint, this PubChem deposit counts one and a half times the control or more as active, and values a quarter to a half above the control carry no call in these data; other NCI protocols may use other cut-offs.

System: BDF1 mice, P388 leukemia ip, median survival T/C
Assay: NCI In Vivo Anticancer Drug Screen. Data for tumor model P388 Leukemia (intraperitoneal) in B6D2F1 (BDF1) mice
Details: T/C endpoint: median survival time, higher T/C = longer survival
How it was run: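 Each value expresses how treatment altered survival: treated-mouse outcome over vehicle-mouse outcome, both groups bearing the transplanted tumour.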

[1] = dose: 50.0 mg/kg/injection, schedule: Q01DX009 (ip), vehicle: saline with Tween-80
[2] = dose: 200.0 mg/kg/injection, schedule: Q01DX009 (ip), vehicle: saline with Tween-80
[3] = dose: 6.25 mg/kg/injection, schedule: Q01DX009 (ip), vehicle: saline
[4] = dose: 50.0 mg/kg/injection, schedule: Q01DX009 (ip), vehicle: saline
[5] = dose: 400.0 mg/kg/injection, schedule: Q01DX009 (ip), vehicle: saline
[6] = dose: 100.0 mg/kg/injection, schedule: Q01DX009 (ip), vehicle: other
[7] = dose: 400.0 mg/kg/injection, schedule: Q01DX009 (ip), vehicle: other
[8] = dose: 200.0 mg/kg/injection, schedule: Q01DX009 (ip), vehicle: Klucel (hydroxypropylcellulose) (HPC)

CC1CN1P(=O)(N1CC2CCC(CC2)C1)N1CC1C (stereo not given)
T/C [1]: 145 % of control
T/C (dose: 75.0 mg/kg/injection, schedule: Q01DX009 (ip), vehicle: saline with Tween-80): 127 % of control
survivor count [2]: 6 of 6

Oc1c(Cl)c(Cl)c(Cl)c2cccnc12
survivor count (dose: 25.0 mg/kg/injection, schedule: Q01DX009 (ip), vehicle: saline with Tween-80): 1 of 6

CC1CC(C)CC(C)C(O)/C(C#N)=C/C=C/CC(C2CCCC2C(=O)O)OC(=O)CC(O)C(C)C1 (stereo not given)
T/C (dose: 2.0 mg/kg/injection, schedule: Q01DX009 (ip), vehicle: Klucel (hydroxypropylcellulose) (HPC)): 139 % of control
survivor count (dose: 4.0 mg/kg/injection, schedule: Q01DX009 (ip), vehicle: Klucel (hydroxypropylcellulose) (HPC)): 4 of 6
survivor count (dose: 8.0 mg/kg/injection, schedule: Q01DX009 (ip), vehicle: Klucel (hydroxypropylcellulose) (HPC)): 0 of 6
survivor count (dose: 16.0 mg/kg/injection, schedule: Q01DX009 (ip), vehicle: Klucel (hydroxypropylcellulose) (HPC)): 1 of 6
survivor count (dose: 45.0 mg/kg/injection, schedule: Q01DX009 (ip), vehicle: Klucel (hydroxypropylcellulose) (HPC)): 0 of 6
survivor count (dose: 90.0 mg/kg/injection, schedule: Q01DX009 (ip), vehicle: Klucel (hydroxypropylcellulose) (HPC)): 0 of 6
survivor count (dose: 180.0 mg/kg/injection, schedule: Q01DX009 (ip), vehicle: Klucel (hydroxypropylcellulose) (HPC)): 0 of 6

O=C(Nc1cccc(C2=NCCCN2)c1)Nc1ccc(NC(=O)Nc2cccc(C3=NCCCN3)c2)c(Cl)c1
T/C (dose: 7.0 mg/kg/injection, schedule: Q04DX003 (ip), vehicle: saline with Tween-80): 139 % of control
survivor count (dose: 40.0 mg/kg/injection, schedule: Q01DX009 (ip), vehicle: saline with Tween-80): 3 of 6

Nc1nc(N)c2cc(N3CCCC3c3ccc(Cl)cc3)ccc2n1 (stereo not given)
T/C [3]: 125 % of control
survivor count (dose: 25.0 mg/kg/injection, schedule: Q01DX009 (ip), vehicle: saline): 2 of 6
survivor count [4]: 0 of 6
survivor count (dose: 100.0 mg/kg/injection, schedule: Q01DX009 (ip), vehicle: saline): 0 of 6
survivor count (dose: 100.0 mg/kg/injection, schedule: Q04DX003 (ip), vehicle: water): 5 of 6
survivor count (dose: 200.0 mg/kg/injection, schedule: Q04DX003 (ip), vehicle: water): 0 of 6
survivor count (dose: 400.0 mg/kg/injection, schedule: Q04DX003 (ip), vehicle: water): 0 of 6

CC(=O)O[C@]1(C(C)=O)CC[C@H]2[C@@H]3C[C@H](Cl)C4=CC(=O)CC[C@]4(C)[C@H]3CC[C@@]21C
survivor count (dose: 400.0 mg/kg/injection, schedule: Q04DX003 (ip), vehicle: saline with Tween-80): 6 of 6

COCOS(C)(=O)=O
survivor count (dose: 400.0 mg/kg/injection, schedule: Q04DX003 (ip), vehicle: saline): 0 of 6

CC1(C)OC(=O)CC(=O)O1
survivor count [5]: 6 of 6

CCN(CC)C(=O)c1ccc([N+](=O)[O-])cc1
survivor count (dose: 100.0 mg/kg/injection, schedule: Q04DX003 (ip), vehicle: Klucel (hydroxypropylcellulose) (HPC)): 5 of 6

C[C@H](CCC(=O)O)[C@H]1CC[C@H]2[C@@H]3[C@H](O)C[C@@H]4C[C@H](O)CC[C@]4(C)[C@H]3C[C@H](O)[C@]12C (tested in a mixture with another compound)
T/C [6]: 131 % of control
T/C (dose: 198.0 mg/kg/injection, schedule: Q04DX003 (ip), vehicle: saline sonified): 144 % of control
survivor count (dose: 300.0 mg/kg/injection, schedule: Q01DX009 (ip), vehicle: saline): 2 of 6
survivor count [7]: 3 of 6
survivor count [5]: 2 of 6

Clc1nc2nc3n(c2nc1Cl)CCC3(Br)Br
survivor count (dose: 25.0 mg/kg/injection, schedule: Q01DX009 (ip), vehicle: other): 5 of 6
survivor count (dose: 50.0 mg/kg/injection, schedule: Q01DX009 (ip), vehicle: other): 6 of 6
survivor count [6]: 5 of 6
survivor count (dose: 200.0 mg/kg/injection, schedule: Q01DX009 (ip), vehicle: other): 6 of 6
survivor count [7]: 5 of 6

CC1NC(=O)OC1C(C)(C)C (stereo not given)
survivor count (dose: 100.0 mg/kg/injection, schedule: Q01DX009 (ip), vehicle: saline with Tween-80): 0 of 6
survivor count [2]: 0 of 6

CCC(/C=C/C(C)C1CCC2C3CC=C4CC(O)CCC4(C)C3CCC12C)C(C)C (stereo not given) (tested in a mixture with another compound)
survivor count (dose: 150.0 mg/kg/injection, schedule: Q01DX009 (ip), vehicle: saline): 1 of 6
survivor count (dose: 150.0 mg/kg/injection, schedule: Q04DX003 (ip), vehicle: saline): 5 of 6
survivor count (dose: 225.0 mg/kg/injection, schedule: Q01DX009 (ip), vehicle: saline): 0 of 6
survivor count (dose: 225.0 mg/kg/injection, schedule: Q04DX003 (ip), vehicle: saline): 4 of 6
survivor count (dose: 335.0 mg/kg/injection, schedule: Q01DX009 (ip), vehicle: saline): 0 of 6
survivor count (dose: 335.0 mg/kg/injection, schedule: Q04DX003 (ip), vehicle: saline): 2 of 6

O=S(=O)(Nc1ccc(C(F)(F)F)cc1)c1ccc(C(F)(F)F)cc1
survivor count (dose: 200.0 mg/kg/injection, schedule: Q04DX003 (ip), vehicle: Klucel (hydroxypropylcellulose) (HPC)): 4 of 6

COc1ccc(CNCC(OC)OC)cc1O
survivor count (dose: 400.0 mg/kg/injection, schedule: Q01DX001 (ip), vehicle: saline with Tween-80): 2 of 6

CCC(CCC(C)C1CCC2C3CC=C4CC(O)CCC4(C)C3CCC12C)C(C)C (stereo not given) (tested in a mixture with another compound)
survivor count (dose: 25.0 mg/kg/injection, schedule: Q#A X020 (ip), vehicle: water): 5 of 6
survivor count (dose: 50.0 mg/kg/injection, schedule: Q#A X020 (ip), vehicle: water): 1 of 6
survivor count (dose: 100.0 mg/kg/injection, schedule: Q#A X020 (ip), vehicle: water): 0 of 6

O=S(=O)(O)c1ccc(Nc2ccccc2)cc1
survivor count [8]: 5 of 6

O=C1CN(CN2CCCCC2)C(=O)CN1CN1CCCCC1
survivor count (dose: 100.0 mg/kg/injection, schedule: Q01DX009 (ip), vehicle: Klucel (hydroxypropylcellulose) (HPC)): 6 of 6
survivor count [8]: 2 of 6
survivor count (dose: 300.0 mg/kg/injection, schedule: Q01DX009 (ip), vehicle: Klucel (hydroxypropylcellulose) (HPC)): 0 of 6
survivor count (dose: 400.0 mg/kg/injection, schedule: Q04DX003 (ip), vehicle: Klucel (hydroxypropylcellulose) (HPC)): 3 of 6

CCC[CH2][Hg][O]C(C)=O
T/C (dose: 3.3 mg/kg/injection, schedule: Q01DX009 (ip), vehicle: other): 145 % of control
T/C (dose: 5.0 mg/kg/injection, schedule: Q01DX009 (ip), vehicle: other): 145 % of control
T/C (dose: 6.25 mg/kg/injection, schedule: Q01DX009 (ip), vehicle: saline with Tween-80): 125 % of control
survivor count (dose: 7.5 mg/kg/injection, schedule: Q01DX009 (ip), vehicle: other): 4 of 6
T/C (dose: 9.37 mg/kg/injection, schedule: Q01DX009 (ip), vehicle: saline): 142 % of control
T/C (dose: 12.5 mg/kg/injection, schedule: Q04DX003 (ip), vehicle: saline sonified): 125 % of control

COc1ccc(OC)c(/C=C/c2ccc3ccccc3n2)c1
survivor count (dose: 200.0 mg/kg/injection, schedule: Q04DX003 (ip), vehicle: saline with Tween-80): 6 of 6

[N-]=[N+]=CC(=O)NCC(=O)NO
survivor count (dose: 600.0 mg/kg/injection, schedule: Q01DX009 (ip), vehicle: water): 6 of 6

CC(=O)OC1C=CCC2C(=O)C34CC=CC(OC(C)=O)C3(C(=O)c3ccccc3C4=O)C(=O)C12 (stereo not given)
survivor count [3]: 6 of 6
T/C [4]: 126 % of control

CN=S(=O)(OC/C=C/COS(=O)(=NC)c1ccc(C)cc1)c1ccc(C)cc1 (stereo not given)
T/C [1]: 128 % of control
survivor count (dose: 100.0 mg/kg/injection, schedule: Q01DX009 (ip), vehicle: saline + alcohol): 4 of 6
survivor count (dose: 200.0 mg/kg/injection, schedule: Q01DX009 (ip), vehicle: saline + alcohol): 0 of 6
